{"sequences": {"note": "By UniProt entry, the sequences of proteins in these tests, tags left out.", "UniProt P08684, whole entry": "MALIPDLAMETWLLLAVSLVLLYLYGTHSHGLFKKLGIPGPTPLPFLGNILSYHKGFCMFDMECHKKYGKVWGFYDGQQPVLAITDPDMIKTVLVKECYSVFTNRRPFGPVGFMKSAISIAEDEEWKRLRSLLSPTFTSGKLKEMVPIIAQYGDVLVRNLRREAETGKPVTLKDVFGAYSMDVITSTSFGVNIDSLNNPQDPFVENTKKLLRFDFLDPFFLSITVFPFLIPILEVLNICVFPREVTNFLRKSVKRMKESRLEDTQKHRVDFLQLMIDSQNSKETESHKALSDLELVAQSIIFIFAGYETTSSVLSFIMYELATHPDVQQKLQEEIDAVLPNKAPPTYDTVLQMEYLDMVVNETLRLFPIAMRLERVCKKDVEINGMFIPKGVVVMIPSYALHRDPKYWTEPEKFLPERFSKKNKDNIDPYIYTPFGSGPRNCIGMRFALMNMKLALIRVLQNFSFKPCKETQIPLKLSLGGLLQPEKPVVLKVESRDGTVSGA"}, "source": "ChEMBL document CHEMBL5390228", "about": "“Unnatural Endotype B PPAPs as Novel Compounds with Activity against Mycobacterium tuberculosis” (J Med Chem, 2023)", "target": "CYP3A4 (Homo sapiens, UniProt P08684)", "assay": "in vitro", "settings": "heparg"}
{"smiles": "CC(C)=CCC[C@]1(C)[C@@H](CC=C(C)C)C[C@]2(CC=C(C)C)C(=O)C(CC=C(C)C)=C(O)[C@@]1(C(=O)C(C)C)C2=O", "values": [{"measurement": "fold induction at 96 h, 0.5 µM", "value": 8}]}
